Assay results reported in PMC7570844, “Skin Damages—Structure Activity Relationship of Benzimidazole Derivatives Bearing a 5-Membered Ring System” (Molecules, 2020).

Assays:
Assay in all cases: Antidermatophyte plaque growth inhibition
Format in all cases: cell-based
[1] = tested on: Trichophyton mentagrophytes; settings: T. mentagrophytes growth
Epidermophyton floccosum = settings: E. floccosum growth
Microsporum canis = settings: M. canis growth
Trichophyton tonsurans = settings: T. tonsurans growth
Microsporum gypseum = settings: Nannizzia gypsea; M. gypseum growth

`Clc1ccc(COC(Cn2ccnc2)c2ccc(Cl)cc2Cl)cc1` (centres unmarked) [Econazole nitrate, reference compound] gave an IC50 [1] of 6 ± 0.1 ng/mL, an IC50 (Epidermophyton floccosum) of 0.47 ± 0.015 µg/mL and an IC50 (Microsporum canis) of 0.51 ± 0.02 µg/mL. It also gave an IC50 (Trichophyton tonsurans) of 0.13 ± 0.008 µg/mL and an IC50 (Microsporum gypseum) of 0.05 ± 0.0001 µg/mL.
